According to patent US20240360233A1:
Where a chain is given by its changes, count along the chain named. Results are given in words; binding and its absence hold for the method and conditions named. Some binding calls cover weakened binding; strength is not graded here. Blank lines part the entries; values can stand above or below the binder they belong to.

Amino acid sequences for entries named in this document (tags omitted). Residues count along the entry.
UniProt Q9HC73, residues 23-231: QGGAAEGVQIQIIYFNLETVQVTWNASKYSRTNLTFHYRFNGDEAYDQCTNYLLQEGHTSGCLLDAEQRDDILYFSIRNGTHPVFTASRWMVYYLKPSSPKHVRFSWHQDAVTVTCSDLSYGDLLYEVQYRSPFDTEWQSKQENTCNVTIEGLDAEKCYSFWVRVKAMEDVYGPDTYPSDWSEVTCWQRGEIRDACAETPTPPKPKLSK

Molecular target: his-tagged TSLPR (TSLPR-HIS) (UniProt Q9HC73)
Experiment: BLI (ForteBio AHQ sensor)

binding: binds
B1: TSLPR antibody clone 3D8 (antibody, V domains shown)
VH: QVQLVESGGGVVQPGRSLRLSCAASGFTFSSYVMHWVRQAPGKGLEWVAVIWYAGNKKYYADSVKGRFTISRDNSNNTLYLQMNSLRAEDTAVYYCAREYSSSWHYYGMDVWGQGTTVTVSS
VL: DIQLTQSPSFLSASVGDRVTITCRASQGISSYLAWYQQKPGKAPKLLIYAASTLQSGVPSRFSGSGSGTEFTLTISSLQPEDFATYYCQQLNSYPLTFGGGTKVDIKR

binding: binds
B2: TSLPR antibody clone 2F5 (antibody, V domains shown)
VH: EVQLVESGGGLVQSGGSLRFSCAASGFTFSSHPMNWVRQVPGKGLEWVSSISGSGGSTYYADFVKGRFTISRDNSKNTLYLQMNSLRAEDTAVYYCAKGHNSGWKYWGQGTLVTVSS
VL: B1 VL with L96P, G100Q

binding: binds
B3: TSLPR antibody clone 2F1 (antibody, V domains shown)
VH: QVQLQESGPGLVKPSETLSLTCTVSGGSISRYYWSWIRQPPGKGLEWIGYIFYNKNTNYNPSLKSRVTISVDTSKNQFSLKLSSVTAADTAVYYCARYIAAIYTDLYYFDYWGQGTLVTVSS
VL: B1 VL with Y87H, G101M, D105E

binding: binds
B4: TSLPR antibody clone 3E5 (antibody, V domains shown)
VH: EVQLLESGGGLVQPGGSLRLSCAASGFTFSSNAMSWVRQAPGKGLEWVSAIRGRGGSTYYADSVKGRFTISRDNSKNTLYLQLNSLRAEDTAVYYCAKDRIVVAGPFDHWGQGTLVTVSS
VL: B1 VL with S93R

binding: binds
B5: TSLPR antibody clone 2E6 (antibody, V domains shown)
VH: EVQLLESGGNLVQPGGSLRLSCAASGFTFGSYVMTWGRQAPGKGLEWVSTISASGGSTYYADSVKGRFTISRDNSKNTLYLQMNSLRAEDTAVYYCAKDKWGKGFDIWGQGTMVTVSS
VL: B1 VL with L96P, D105E

binding: binds
B6: TSLPR antibody clone 1B9 (antibody, V domains shown)
VH: QVQLQESGPGLVKPSGTLSLTCAVSGGSIRSSNWWSWVRQPPGKGLEWIGEIYHGGTTNNNPSLKSRVTISVDQSKSQFSLKLSSVTAADTAVYYCARHRYSSGLDYWGQGTLVTVSS
VL: DIQMTQTPSTLSASVGDRVTITCRGSHSISNWLGWYRHKPRKAPNLLIYKASSLKSGVPSRFSGSGSGTEFTLTITSLQPDDFATYYCQQYNHYSTFGQGTKVDIKR

binding: binds
B7: TSLPR antibody clone 2H1 (antibody, V domains shown)
VH: EVQLLESGGGLVQPGGSLSLSCAASGFTFSRYGMHWVRQAPGKGLEWVSAISASGGSTYYADSVKGRFTISRDNSKNTLYLQMNSLRAEDTAVYYCAKDKWGYAFDIWGQGTTVTVSS
VL: DIQMTQSPSTLSASVGDRVTITCRASQSISNWLAWYQQKPGKAPKLLIYKASSLESGVPSRFSGSGSGTEFTLTISSLQPDDFATYYCLQYNHYSTFGQGTKVDIKR

binding: binds
B8: TSLPR antibody clone 2E4 (antibody, V domains shown)
VH: EVQLLESGGGLVQPGGSLRLSCAASGFTFSSYAMNWVRQAPGKGLEWVSGISGSGGSTYYADSVKGRFTFSRDNSKNTLYLQMISLRAEDTAVYYCAKDQRITMVRGVIGAFDIWGQGTMVTVSS
VL: B7 VL with N31S, L89Q, N92V, H93G, Y94L, S95I, K102R, V103L, D104E

binding: binds
B9: TSLPR antibody clone 10C4 (antibody, V domains shown)
VH: QVQLQESGPGLVKPSGTLSLTCAVSGGSINSNNWWSWVRQPPGKGLEWIGDIYHSGSTNYNPSLKSRVTISVDKSKSQFSLKLSSVTAADTAVYYCARRRWLQHFDFWGQGTLVTVSS
VL: DIQMTQSPSTLSASVGDRVTITCRASQSITNWLAWYQQKPGKAPKLLIYKASSLESGVPSRFSGSGSGTEFTLAISSLQPDDFATYYCQQYNIYPLAFGGGTKVEIKR

binding: binds
B10: TSLPR antibody clone 1G3 (antibody, V domains shown)
VH: QVQLVESGGGVVQPGRSLRLSCAASGFTFSSYGMHWVRQTPGKGLEWVAVMWYDGRNKYYADSVKGRFTISRDNSKNTLYLQMNSLRAEDTAVYYCARDRIMVRGVIIPHVFDIWGQGTMVTVSS
VL: EIVMTQSPATLSVSPGERATLSCRASQSVSSNLGWYQQKPGQAPRLLIYGASTRATGIPARFSGSGSGTEFILTISSLQSEDFAVYYCQEYNNWWTFGQGTKVDIKR

binding: binds
B11: TSLPR antibody clone 2A4 (antibody, V domains shown)
VH: QVQLVQSGAEVKKPGASVKVSCKASGYTFTGYYMHWVRQAPGQGLEWMGRFNLHSGVTNYAQKFQGRVTMTRDTSISTVYMDLSRLRSDDTAVYYCARERQWLVQDYFDYWGQGTLVTVSS
VL: DIQMTQSPSSLSASVGDRVTITCRASQSISNYLNWYQQKPGKAPNLLICAASSLQSGVPSRFSGSGSGTDFTLTISSLQPEDFATYYCQQSYSIPPTFGQGTKVDIKR

binding: binds
B12: TSLPR antibody clone 2D11 (antibody, V domains shown)
VH: QVQLQESGPGLVKPSETLSLTCAVSGYSISSGYYWGWIRQPPGKGLEWIGRIYHSGTTSYNPSLKRRVTISVDTSKNQFSLKLSSVTATDTAVYYCARNWGGNWFDPWGQGTLVTVSS
VL: DIQMTQSPSSLSASVGDRVTITCRASQGISNYLAWYQQKPGKVPKLLIYAASTLQSGVPSRFSGSGSGTDFTLTISSLQPEDVATYYCQKYNSARTFGQGTKVDIKR
